From patent publication US20120213794A1 come the findings set out here.

Amino acid sequences for entries named in this document (tags omitted). A change or cut given only in a name is not applied to a line headed by its entry. Residues count along the entry.
UniProt Q8NBP7: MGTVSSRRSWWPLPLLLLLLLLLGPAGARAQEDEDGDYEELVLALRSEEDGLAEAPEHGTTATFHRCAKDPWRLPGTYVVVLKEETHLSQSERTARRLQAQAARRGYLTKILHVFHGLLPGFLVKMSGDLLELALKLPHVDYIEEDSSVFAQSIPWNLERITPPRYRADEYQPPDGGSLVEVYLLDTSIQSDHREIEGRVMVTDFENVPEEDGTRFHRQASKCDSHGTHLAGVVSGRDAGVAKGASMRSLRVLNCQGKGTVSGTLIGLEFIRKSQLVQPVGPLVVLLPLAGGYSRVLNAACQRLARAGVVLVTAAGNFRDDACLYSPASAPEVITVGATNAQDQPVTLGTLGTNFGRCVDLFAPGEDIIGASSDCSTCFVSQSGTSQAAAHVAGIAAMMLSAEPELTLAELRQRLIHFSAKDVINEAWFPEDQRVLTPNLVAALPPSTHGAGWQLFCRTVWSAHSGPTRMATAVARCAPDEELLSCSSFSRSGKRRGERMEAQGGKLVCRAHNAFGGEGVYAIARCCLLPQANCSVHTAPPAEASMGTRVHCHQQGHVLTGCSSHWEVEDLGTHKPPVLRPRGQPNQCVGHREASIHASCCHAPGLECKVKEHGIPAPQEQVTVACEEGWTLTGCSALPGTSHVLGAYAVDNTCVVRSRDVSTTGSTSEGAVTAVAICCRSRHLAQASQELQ
UniProt Q80W65, residues 35-694: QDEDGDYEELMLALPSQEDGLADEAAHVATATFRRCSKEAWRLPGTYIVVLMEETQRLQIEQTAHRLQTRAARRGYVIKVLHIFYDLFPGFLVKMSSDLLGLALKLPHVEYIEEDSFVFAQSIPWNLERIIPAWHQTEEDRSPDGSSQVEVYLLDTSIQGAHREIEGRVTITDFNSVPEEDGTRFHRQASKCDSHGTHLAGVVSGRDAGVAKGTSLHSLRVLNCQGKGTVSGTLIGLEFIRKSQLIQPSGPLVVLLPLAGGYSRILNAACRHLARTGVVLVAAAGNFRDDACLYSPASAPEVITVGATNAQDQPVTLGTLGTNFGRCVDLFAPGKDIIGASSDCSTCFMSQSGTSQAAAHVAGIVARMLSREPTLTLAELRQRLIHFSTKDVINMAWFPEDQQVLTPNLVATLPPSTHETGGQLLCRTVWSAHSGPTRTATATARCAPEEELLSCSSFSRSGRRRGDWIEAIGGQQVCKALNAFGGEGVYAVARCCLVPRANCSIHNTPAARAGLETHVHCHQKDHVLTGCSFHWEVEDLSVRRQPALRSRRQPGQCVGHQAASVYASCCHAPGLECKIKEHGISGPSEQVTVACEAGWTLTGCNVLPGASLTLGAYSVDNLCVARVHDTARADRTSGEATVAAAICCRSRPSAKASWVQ

In experiment [1] the target is human PCSK9 (proprotein convertase subtilisin-kexin type 9), wild type (human) (UniProt Q8NBP7). Briefly: inferred by the filing from the cellular LDL-uptake assay.
The target is the same in experiment [2]. The experiment is described as follows: hydrogen-deuterium exchange MS; PCSK9 bound to an antibody affinity column.
The next experiment concerns the target murine PCSK9 (mouse) (UniProt Q80W65). The experiment is described as follows: inferred by the filing from the cellular LDL-uptake assay.
The target of experiment [3] is human PCSK9 (proprotein convertase subtilisin-kexin type 9), wild type (human) (UniProt Q8NBP7). The experiment is described as follows: Biacore; Fab pre-incubated with human PCSK9, injected over LDLR and EGF_AB. (SPR reads the build-up and loss of mass on a sensor chip optically.)
Another experiment has as its target human PCSK9 (human) (UniProt Q8NBP7). The experiment is described as follows: Biacore epitope binning on immobilized human PCSK9.

Results are given in words; binding and its absence hold for the method and conditions named. Some binding calls cover weakened binding; strength is not graded here.

B1: AX213 IgG2 (antibody)
heavy: EVQLLESGGGLVQPGGSLRLSCKASGYTFSRYGINWVRQAPGKGLEWIGRIDPGNGGTRYNEKFKGKATISRDNSKNTLYLQMNSLRAEDTAVYYCARANDGYSFDYWGQGTLVTVSSASTKGPSVFPLAPCSRSTSESTAALGCLVKDYFPEPVTVSWNSGALTSGVHTFPAVLQSSGLYSLSSVVTVPSSNFGTQTYTCNVDHKPSNTKVDKTVERKCCVECPPCPAPPVAGPSVFLFPPKPKDTLMISRTPEVTCVVVDVSHEDPEVQFNWYVDGVEVHNAKTKPREEQFNSTFRVVSVLTVVHQDWLNGKEYKCKVSNKGLPAPIEKTISKTKGQPREPQVYTLPPSREEMTKNQVSLTCLVKGFYPSDIAVEWESNGQPENNYKTTPPMLDSDGSFFLYSKLTVDKSRWQQGNVFSCSVMHEALHNHYTQKSLSLSPGK
light: EIVLTQSPATLSLSPGERATITCRASQYVGSYLNWYQQKPGQAPRLLIYDASNRATGIPARFSGSGSGTDFTLTISSLEPEDFAVYYCQVWDSSPPVVFGGGTKVEIKRTVAAPSVFIFPPSDEQLKSGTASVVCLLNNFYPREAKVQWKVDNALQSGNSQESVTEQDSKDSTYSLSSTLTLSKADYEKHKVYACEVTHQGLSSPVTKSFNRGEC
As for B1, the binding entry in experiment [1] and in experiment [2] was “binds” in each case.

B2: AX132 IgG2 (antibody)
heavy: EVQLLESGGGLVQPGGSLRLSCKASGYTFSSYGMYWVRQAPGKGLEWIGWIDPGSGGTKYNEKFKGKATISRDNSKNTLYLQMNSLRAEDTAVYYCARERYGYYFDYWGQGTLVTVSSASTKGPSVFPLAPCSRSTSESTAALGCLVKDYFPEPVTVSWNSGALTSGVHTFPAVLQSSGLYSLSSVVTVPSSNFGTQTYTCNVDHKPSNTKVDKTVERKCCVECPPCPAPPVAGPSVFLFPPKPKDTLMISRTPEVTCVVVDVSHEDPEVQFNWYVDGVEVHNAKTKPREEQFNSTFRVVSVLTVVHQDWLNGKEYKCKVSNKGLPAPIEKTISKTKGQPREPQVYTLPPSREEMTKNQVSLTCLVKGFYPSDIAVEWESNGQPENNYKTTPPMLDSDGSFFLYSKLTVDKSRWQQGNVFSCSVMHEALHNHYTQKSLSLSPGK
VL: EIVLTQSPATLSLSPGERATITCRASQYVGSYLNWYQQKPGQAPRLLIYDASNRATGIPARFSGSGSGTDFTLTISSLEPEDFAVYYCQVWDSSPPVVFGGGTKVEIK
Turning to B2, the binding result with murine PCSK9 (mouse) is “binds”.

B3: AX114 Fab (Fab, V domains shown)
VH: EVQLLESGGGLVQPGGSLRLSCKASGYTFSSYGMYWVRQAPGKGLEWIGWIDPGSGGTKYNEKFKGKATISRDNSKNTLYLQMNSLRAEDTAVYYCARERYGYYFDYWGQGTLVTVSS
VL: EIVLTQSPATLSLSPGERATITCRASQYVGTYLNWYQQKPGQAPRLLIYDASNRATGIPARFSGSGSGTDFTLTISSLEPEDFAVYYCQVWDSSPPVAFGGGTKVEIK
In the case of B3, the binding entry in experiment [3] is recorded as “binds”.

B4: AX211 (antibody, V domains shown)
VH: QVQLLESGGGLVQPGGSLRLSCKASGYTFSRQGFTWVRQAPGKGLEWIGWIDPGNGGTRYNEKFKGKATISRDNSKNTLYLQMNSLRAEDTAVYYCARYRVGYSLDYWGQGTLVTVSS
VL: EIVLTQSPATLSLSPGERATITCRASQYVGSYLNWYQQKPGQAPRLLIYDASNRATGIPARFSGSGSGTDFTLTISSLEPEDFAVYYCQVWDSSPPVVFGGGTKVEIK
As to B4, the binding entry with human PCSK9 (human) is “binds”.

B5: AX213 (antibody, V domains shown)
VH: EVQLLESGGGLVQPGGSLRLSCKASGYTFSRYGINWVRQAPGKGLEWIGRIDPGNGGTRYNEKFKGKATISRDNSKNTLYLQMNSLRAEDTAVYYCARANDGYSFDYWGQGTLVTVSS
VL: EIVLTQSPATLSLSPGERATITCRASQYVGSYLNWYQQKPGQAPRLLIYDASNRATGIPARFSGSGSGTDFTLTISSLEPEDFAVYYCQVWDSSPPVVFGGGTKVEIK
As for B5, in the experiment with human PCSK9 (human), the binding result is on record as “binds”.

B6: AX210 (antibody, V domains shown)
VH: QVQLLESGGGLVQPGGSLRLSCKASGYTFSSYSIYWVRQAPGKGLEWIGWIDPGNGGTRYNQKFQSKATISRDNSKNTLYLQMNSLRAEDTAVYYCARARVGYSLDYWGQGTLVTVSS
VL: EIVLTQSPATLSLSPGERATITCRASQYVGSYLNWYQQKPGQAPRLLIYDASNRATGIPARFSGSGSGTDFTLTISSLEPEDFAVYYCQVWDSSPPVVFGGGTKVEIK
As for B6, the binding result with human PCSK9 (human) was “binds”.

B7: AX114 (antibody, V domains shown)
VH: EVQLLESGGGLVQPGGSLRLSCKASGYTFSSYGMYWVRQAPGKGLEWIGWIDPGSGGTKYNEKFKGKATISRDNSKNTLYLQMNSLRAEDTAVYYCARERYGYYFDYWGQGTLVTVSS
VL: EIVLTQSPATLSLSPGERATITCRASQYVGTYLNWYQQKPGQAPRLLIYDASNRATGIPARFSGSGSGTDFTLTISSLEPEDFAVYYCQVWDSSPPVAFGGGTKVEIK
On to B7, for which the binding result with human PCSK9 (human) is on record as “binds”.

B8: AX137 (antibody, V domains shown)
VH: EVQLLESGGGLVQPGGSLRLSCKASGYTFSSYGMYWVRQAPGKGLEWIGWIDPGSGGTKYNEKFKGKATISRDNSKNTLYLQMNSLRAEDTAVYYCARERYGYYFDYWGQGTLVTVSS
VL: EIVLTQSPATLSLSPGERATITCRASQYIGSYLNWYQQKPGQAPRLLIYDASNRATGIPARFSGSGSGTDFTLTISSLEPEDFAVYYCQAWDSSPPVVFGGGTKVEIK
On to B8, for which, in the experiment with human PCSK9 (human), the binding result is “binds”.

B9: AX139 (antibody, V domains shown)
VH: EVQLLESGGGLVQPGGSLRLSCKASGYTFSSYGMYWVRQAPGKGLEWIGWIDPGSGGTKYNEKFKGKATISRDNSKNTLYLQMNSLRAEDTAVYYCARERYGYYFDYWGQGTLVTVSS
VL: EIVLTQSPATLSLSPGERATITCRASQYVGSYLNWYQQKPGQAPRLLIYDAANRATGIPARFSGSGSGTDFTLTISSLEPEDFAVYYCQVWDSSPPVVFGGGTKVEIK
Consider B9, for which the binding result with human PCSK9 (human) is given as “binds”.

B10: AX212 (antibody, V domains shown)
VH: QVQLLESGGGLVQPGGSLRLSCKASGYTFSSYSFSWVRQAPGKGLEWIGYIDPGSGGTKYNQKFQGKATISRDNSKNTLYLQMNSLRAEDTAVYYCARQRVGYSLDYWGQGTLVTVSS
VL: EIVLTQSPATLSLSPGERATITCRASQYVGSYLNWYQQKPGQAPRLLIYDASNRATGIPARFSGSGSGTDFTLTISSLEPEDFAVYYCQVWDSSPPVVFGGGTKVEIK
With B10, in the experiment with human PCSK9 (human), the binding entry is recorded as “binds”.
